The other results are listed elsewhere or left out.
What was measured:
Assay in all cases: log2 fold change, soluble protein after heating vs DMSO (PISA); higher = thermal stabilisation; K562 lysate, 10 uM; active = over 0.2 and 3.5 SD of the protein, either way, in both replicates (recomputed)
erlotinib = compound: C#Cc1cccc(Nc2ncnc3cc(OCCOC)c(OCCOC)cc23)c1 [erlotinib]
Outline: (§1)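 Following dounce homogenisation of K562 pellets in PBS pH 7.4 with 1 mM MgCl2, crude extract at 1 mg/mL protein was incubated for 30 min with 10 μM compound. Aliquots were then heated for 3 min over 48°C-58°C and pooled, NP-40 was added to 0.5% at 4°C, and soluble protein was recovered as the supernatant at 21,000xg for 90 min. Channel-sum-equalised TMTpro 16plex LC-MS/MS quantified this protein. Each value, from duplicates, is a log-two fold change in thermal stability relative to solvent controls.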

Chains of the proteins cited; added tags and fusions are not shown. Lines headed by an entry give the natural chain unless they say otherwise; changes in a name come on top.
NBDY, A0A0U1RRE5, UniProt A0A0U1RRE5, whole entry, looked up: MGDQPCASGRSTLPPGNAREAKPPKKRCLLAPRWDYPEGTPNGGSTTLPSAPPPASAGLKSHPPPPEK
UniProt Q13772: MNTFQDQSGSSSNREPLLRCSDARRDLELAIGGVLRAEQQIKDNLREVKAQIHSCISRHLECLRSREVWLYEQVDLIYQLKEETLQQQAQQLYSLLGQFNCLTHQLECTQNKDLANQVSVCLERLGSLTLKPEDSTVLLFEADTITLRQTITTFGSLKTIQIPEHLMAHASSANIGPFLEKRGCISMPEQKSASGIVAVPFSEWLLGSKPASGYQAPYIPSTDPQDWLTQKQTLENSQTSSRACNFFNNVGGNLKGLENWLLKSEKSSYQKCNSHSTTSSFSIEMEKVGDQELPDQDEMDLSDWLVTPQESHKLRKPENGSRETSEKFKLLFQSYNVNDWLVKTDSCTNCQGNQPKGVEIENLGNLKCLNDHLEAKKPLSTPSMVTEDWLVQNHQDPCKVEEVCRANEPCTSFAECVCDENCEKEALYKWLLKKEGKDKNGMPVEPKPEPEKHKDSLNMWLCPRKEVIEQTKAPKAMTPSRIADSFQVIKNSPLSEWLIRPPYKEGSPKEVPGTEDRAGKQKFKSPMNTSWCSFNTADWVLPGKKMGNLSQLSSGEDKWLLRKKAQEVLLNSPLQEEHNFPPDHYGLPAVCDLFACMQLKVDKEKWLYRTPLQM
UniProt Q02083: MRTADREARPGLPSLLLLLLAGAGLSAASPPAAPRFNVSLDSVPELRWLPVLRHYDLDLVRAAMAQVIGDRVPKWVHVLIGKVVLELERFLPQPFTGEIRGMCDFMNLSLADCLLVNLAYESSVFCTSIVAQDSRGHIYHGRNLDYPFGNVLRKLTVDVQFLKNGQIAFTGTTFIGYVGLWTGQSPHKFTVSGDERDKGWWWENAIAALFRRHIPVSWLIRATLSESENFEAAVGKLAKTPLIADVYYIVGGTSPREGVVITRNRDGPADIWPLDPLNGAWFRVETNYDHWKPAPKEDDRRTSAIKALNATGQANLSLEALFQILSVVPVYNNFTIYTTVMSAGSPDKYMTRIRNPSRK
UniProt Q14596: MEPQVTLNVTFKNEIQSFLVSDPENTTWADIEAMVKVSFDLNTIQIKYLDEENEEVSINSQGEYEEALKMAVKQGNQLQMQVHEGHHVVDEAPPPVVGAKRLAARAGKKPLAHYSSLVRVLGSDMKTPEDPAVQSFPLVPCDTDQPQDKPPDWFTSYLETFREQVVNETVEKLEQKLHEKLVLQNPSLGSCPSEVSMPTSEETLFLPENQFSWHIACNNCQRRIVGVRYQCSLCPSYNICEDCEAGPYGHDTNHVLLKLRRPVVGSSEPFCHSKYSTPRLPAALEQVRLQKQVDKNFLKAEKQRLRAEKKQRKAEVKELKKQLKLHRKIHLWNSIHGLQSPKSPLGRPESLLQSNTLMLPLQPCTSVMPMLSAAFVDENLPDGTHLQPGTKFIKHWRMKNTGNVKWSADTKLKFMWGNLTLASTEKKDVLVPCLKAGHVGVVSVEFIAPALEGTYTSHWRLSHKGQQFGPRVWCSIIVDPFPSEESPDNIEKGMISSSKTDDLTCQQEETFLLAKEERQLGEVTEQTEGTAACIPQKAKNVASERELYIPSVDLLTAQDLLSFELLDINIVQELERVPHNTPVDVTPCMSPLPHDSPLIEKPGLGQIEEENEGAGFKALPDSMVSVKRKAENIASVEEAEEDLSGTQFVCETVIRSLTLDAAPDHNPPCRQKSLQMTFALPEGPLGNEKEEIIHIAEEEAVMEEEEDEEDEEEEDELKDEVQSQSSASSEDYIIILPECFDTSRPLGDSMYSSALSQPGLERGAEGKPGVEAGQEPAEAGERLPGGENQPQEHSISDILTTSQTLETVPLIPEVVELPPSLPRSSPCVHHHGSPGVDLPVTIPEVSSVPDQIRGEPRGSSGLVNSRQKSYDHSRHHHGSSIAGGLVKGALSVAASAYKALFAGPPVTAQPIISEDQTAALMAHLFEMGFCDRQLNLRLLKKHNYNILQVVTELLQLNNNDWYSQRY
UniProt G3V1V0: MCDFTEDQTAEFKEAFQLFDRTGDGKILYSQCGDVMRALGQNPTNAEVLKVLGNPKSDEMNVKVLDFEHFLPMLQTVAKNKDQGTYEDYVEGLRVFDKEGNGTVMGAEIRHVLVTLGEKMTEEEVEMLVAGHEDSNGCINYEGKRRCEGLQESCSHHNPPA
UniProt P84157: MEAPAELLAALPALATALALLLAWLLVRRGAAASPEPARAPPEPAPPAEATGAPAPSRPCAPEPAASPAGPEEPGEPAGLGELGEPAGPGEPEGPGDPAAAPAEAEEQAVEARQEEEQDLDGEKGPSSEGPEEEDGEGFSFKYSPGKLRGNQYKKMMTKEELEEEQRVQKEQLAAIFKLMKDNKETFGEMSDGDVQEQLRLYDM
UniProt Q99733: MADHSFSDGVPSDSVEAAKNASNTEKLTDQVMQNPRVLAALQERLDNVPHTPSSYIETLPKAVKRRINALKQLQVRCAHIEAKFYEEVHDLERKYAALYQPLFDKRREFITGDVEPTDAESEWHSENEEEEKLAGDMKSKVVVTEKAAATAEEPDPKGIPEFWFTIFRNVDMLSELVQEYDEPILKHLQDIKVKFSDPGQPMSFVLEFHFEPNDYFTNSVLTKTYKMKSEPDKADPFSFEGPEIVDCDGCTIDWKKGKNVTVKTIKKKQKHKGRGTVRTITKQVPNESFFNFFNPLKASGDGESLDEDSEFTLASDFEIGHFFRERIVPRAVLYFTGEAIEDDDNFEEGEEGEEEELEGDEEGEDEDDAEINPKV
UniProt Q9UK23: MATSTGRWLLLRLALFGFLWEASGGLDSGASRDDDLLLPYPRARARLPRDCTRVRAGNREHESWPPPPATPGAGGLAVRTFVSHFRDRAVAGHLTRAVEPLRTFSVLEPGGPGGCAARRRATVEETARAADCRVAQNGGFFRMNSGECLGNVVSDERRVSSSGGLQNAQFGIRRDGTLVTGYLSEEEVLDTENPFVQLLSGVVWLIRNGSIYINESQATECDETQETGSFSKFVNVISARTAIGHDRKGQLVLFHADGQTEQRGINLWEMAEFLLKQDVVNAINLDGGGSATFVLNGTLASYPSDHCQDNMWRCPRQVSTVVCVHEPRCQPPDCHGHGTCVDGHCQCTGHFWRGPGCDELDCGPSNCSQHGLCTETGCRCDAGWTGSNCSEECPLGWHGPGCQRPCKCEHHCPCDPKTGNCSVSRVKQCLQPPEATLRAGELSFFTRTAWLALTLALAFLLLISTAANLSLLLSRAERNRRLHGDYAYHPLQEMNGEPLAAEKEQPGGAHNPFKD
UniProt P10244: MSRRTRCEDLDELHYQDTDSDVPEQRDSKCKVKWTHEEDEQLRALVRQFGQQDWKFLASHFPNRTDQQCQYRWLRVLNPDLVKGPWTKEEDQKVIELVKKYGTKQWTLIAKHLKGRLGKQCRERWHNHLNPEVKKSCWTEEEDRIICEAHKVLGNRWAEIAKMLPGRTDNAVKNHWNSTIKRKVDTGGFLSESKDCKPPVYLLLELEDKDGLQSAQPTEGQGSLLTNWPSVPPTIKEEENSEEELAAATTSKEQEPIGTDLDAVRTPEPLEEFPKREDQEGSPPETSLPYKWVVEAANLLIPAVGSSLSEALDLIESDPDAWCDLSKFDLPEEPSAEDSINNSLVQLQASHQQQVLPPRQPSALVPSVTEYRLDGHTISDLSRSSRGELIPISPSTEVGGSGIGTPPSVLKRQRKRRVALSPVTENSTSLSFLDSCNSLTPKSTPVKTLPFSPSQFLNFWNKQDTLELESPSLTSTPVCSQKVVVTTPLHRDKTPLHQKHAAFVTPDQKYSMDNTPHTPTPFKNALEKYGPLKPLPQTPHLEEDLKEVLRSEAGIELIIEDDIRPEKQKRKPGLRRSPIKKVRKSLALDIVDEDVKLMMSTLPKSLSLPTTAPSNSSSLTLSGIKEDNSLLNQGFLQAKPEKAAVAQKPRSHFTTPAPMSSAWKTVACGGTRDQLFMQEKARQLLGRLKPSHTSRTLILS
UniProt Q8N6N6: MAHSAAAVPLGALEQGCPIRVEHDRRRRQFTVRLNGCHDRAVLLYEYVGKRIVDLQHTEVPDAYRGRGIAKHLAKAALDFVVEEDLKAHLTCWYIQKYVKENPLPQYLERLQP

[1] = compound: C/C(=N\NC(=O)C1=CC(=CC=C1)S(=O)(=O)N2CCOCC2)/C3=C(C=CC(=C3)Cl)O
Outline: as §1

[2] = compound: C1=CC(=CC=C1C2=NC3=C(N2)C=C(C=C3)C(=O)N)OC4=CC=C(C=C4)Cl
Outline: as §1

[3] = compound: C1=CC2=C(C=CC(=C2)/C=C\3/C(=O)NC(=NCC4=CC=CS4)S3)N=C1
Outline: as §1

[4] = compound: C1=CC2=NC=CN=C2C=C1/C=C/3\C(=O)NC(=O)S3
Outline: as §1

[5] = compound: C1=CC=C(C=C1)C2=NC(=C(N2)C3=CC=NC=C3)C4=CC(=C(C=C4)Cl)O
Outline: as §1

[6] = compound: C1=CC=C2C(=C1)C3=NNC4=CC=CC(=C43)C2=O
Outline: as §1

IRAK-1-4 Inhibitor I = compound: C1COCCN1CCN2C3=CC=CC=C3N=C2NC(=O)C4=CC(=CC=C4)[N+](=O)[O-] [IRAK-1-4 Inhibitor I]
Outline: as §1

ibrutinib = compound: C=CC(=O)N1CCC[C@@H](n2nc(-c3ccc(Oc4ccccc4)cc3)c3c(N)ncnc32)C1 [ibrutinib]
Outline: as §1

[7] = compound: CC(=O)c1cnc2ccc(-c3cc(Cl)c(O)c(Cl)c3)nc2c1N[C@H]1CC[C@H](CN(C)C)CC1
Outline: as §1

ralimetinib = compound: CC(C)(C)Cn1c(N)nc2ccc(-c3[nH]c(C(C)(C)C)nc3-c3ccc(F)cc3)nc21 [ralimetinib]
Outline: as §1

[8] = compound: CC(C)(O)CC(=O)NCCn1ccc2ncnc(Nc3ccc(Oc4cccc(C(F)(F)F)c4)c(Cl)c3)c21
Outline: as §1

[9] = compound: CC(C)C1=C2N=C(C=C(N2N=C1)NCC3=CC=CC=C3)NCCCCCCN
Outline: as §1

[10] = compound: CC1=C(C(CC(=O)N1)C2=CC=C(C=C2)C(F)(F)F)C(=O)NC3=C(C=C4C(=C3)C=NN4)F
Outline: as §1

[11] = compound: CC1=C(C2=C(C=C1)C(=O)C3=CC=CC=C3N2CCCN)C
Outline: as §1

[12] = compound: CC1=C(C=C(C=C1)NC(=O)C2=CC(=CC=C2)C(C)(C)C#N)NC3=CC4=C(C=C3)N=CN(C4=O)C
Outline: as §1

[13] = compound: CC1=C(C=C(C=C1)NC(=O)C2=CC(=CC=C2)N(C)C)NC(=O)C3=CC=C(C=C3)O
Outline: as §1

[14] = compound: CC1=CC=C(C=C1)SC2=C3C=C(SC3=CN=C2)C(=O)N
Outline: as §1

[15] = compound: C1CCN(C1)C(=O)NC2=CC=CC(=C2)NC3=NC=C(C(=N3)NCCC4=CN=CN4)Br
Outline: as §1

[16] = compound: C1CN(CCC1(CC2=CC=C(C=C2)Cl)N)C3=NC=NC4=C3C=CN4
Outline: as §1

Measured: log2 fold change

NBDY, A0A0U1RRE5
inactive: erlotinib 0.281 | [1] 0.051 | [2] 0.025 | [3] 0.076 | [4] 0.001 | [5] 0.047 | [6] -0.361 | IRAK-1-4 Inhibitor I -0.031 | ibrutinib 0.205 | [7] 0.052 | ralimetinib -0.157 | [8] 0.124 | [9] -0.261 | [10] 0.122 | [11] -0.045 | [12] 0.028 | [13] -0.129 | [14] -0.041

NCOA4 isoform 4 (UniProt Q13772)
inactive: erlotinib 0.056 | [1] 0.02 | [2] -0.016 | [3] -0.123 | [4] 0.044 | [5] -0.023 | [6] -0.022 | [15] 0.004 | [16] -0.097 | IRAK-1-4 Inhibitor I 0.017 | ibrutinib 0.009 | [7] 0.004 | ralimetinib -0.007 | [8] -0.008 | [9] 0.031 | [10] 0.052 | [11] -0.054 | [12] -0.027 | [13] 0.031 | [14] -0.176

NAAA (UniProt Q02083)
inactive: erlotinib 0.036 | [1] 0 | [2] 0.032 | [3] 0.012 | [4] 0.04 | [5] -0.021 | [6] 0.086 | [15] -0.146 | [16] -0.063 | IRAK-1-4 Inhibitor I -0.014 | ibrutinib 0.113 | [7] 0 | ralimetinib -0.058 | [8] 0.02 | [9] 0.017 | [10] -0.058 | [11] 0.025 | [12] -0.058 | [13] 0.003 | [14] 0.019

NBR1 (UniProt Q14596)
inactive: erlotinib 0.065 | [1] -0.142 | [2] 0.059 | [3] 0.285 | [4] -0.121 | [5] 0.012 | [6] 0.073 | [15] 0.143 | [16] -0.048 | IRAK-1-4 Inhibitor I -0.073 | ibrutinib -0.082 | [7] 0.024 | ralimetinib 0.001 | [8] -0.018 | [9] 0.003 | [11] -0.089 | [12] -0.055 | [13] 0.035 | [14] 0.046

MYL6 (UniProt G3V1V0)
inactive: erlotinib 0.092 | [1] -0.191 | [2] 0.036 | [3] 0.22 | [5] 0.002 | [6] -0.255 | [15] -0.125 | [16] 0.045 | IRAK-1-4 Inhibitor I -0.024 | [7] -0.061 | ralimetinib -0.053 | [8] -0.024 | [9] -0.039 | [10] -0.006 | [11] 0.02 | [12] 0.056 | [13] 0.025 | [14] -0.051

MXRA7 (UniProt P84157)
inactive: erlotinib -0.001 | [1] 0.062 | [2] 0.118 | [3] 0.17 | [5] -0.062 | [6] -0.135 | [15] 0.02 | [16] 0 | IRAK-1-4 Inhibitor I -0.043 | [7] -0.234 | ralimetinib 0.108 | [8] 0.027 | [9] -0.057 | [10] -0.074 | [11] 0.024 | [12] 0.021 | [13] 0.045 | [14] -0.023

MVB12A (UniProt Q96EY5)
inactive: erlotinib 0.027 | [1] -0.049 | [2] 0.022 | [3] -0.001 | [4] -0.024 | [5] -0.001 | [6] -0.046 | [15] -0.089 | [16] -0.003 | IRAK-1-4 Inhibitor I -0.001 | ibrutinib 0.049 | [7] 0.009 | ralimetinib -0.008 | [8] 0.001 | [9] -0.003 | [10] -0.015 | [11] 0.033 | [12] -0.015 | [13] 0.043 | [14] 0.02

NAP1L4 isoform 2 (UniProt Q99733)
inactive: erlotinib -0.012 | [1] -0.02 | [2] -0.01 | [3] -0.005 | [4] 0.016 | [5] -0.018 | [6] 0.001 | [15] 0.023 | [16] -0.022 | IRAK-1-4 Inhibitor I 0.011 | ibrutinib -0.023 | [7] -0.001 | ralimetinib 0.004 | [8] -0.003 | [9] -0.02 | [10] -0.001 | [11] -0.004 | [12] -0.024 | [13] 0.015 | [14] -0.013

Two records picked at random from those above, as already listed:
MYL6 (UniProt G3V1V0)
inactive: erlotinib 0.092 | [1] -0.191 | [2] 0.036 | [3] 0.22 | [5] 0.002 | [6] -0.255 | [15] -0.125 | [16] 0.045 | IRAK-1-4 Inhibitor I -0.024 | [7] -0.061 | ralimetinib -0.053 | [8] -0.024 | [9] -0.039 | [10] -0.006 | [11] 0.02 | [12] 0.056 | [13] 0.025 | [14] -0.051

NAP1L4 isoform 2 (UniProt Q99733)
inactive: erlotinib -0.012 | [1] -0.02 | [2] -0.01 | [3] -0.005 | [4] 0.016 | [5] -0.018 | [6] 0.001 | [15] 0.023 | [16] -0.022 | IRAK-1-4 Inhibitor I 0.011 | ibrutinib -0.023 | [7] -0.001 | ralimetinib 0.004 | [8] -0.003 | [9] -0.02 | [10] -0.001 | [11] -0.004 | [12] -0.024 | [13] 0.015 | [14] -0.013

Later entries:

NAA15, A0A0B4J1W3
inactive: erlotinib -0.065 | [1] 0.029 | [2] 0.007 | [3] 0 | [4] -0.002 | [5] -0.062 | [6] 0.043 | [15] -0.034 | [16] 0 | IRAK-1-4 Inhibitor I 0.054 | ibrutinib 0.029 | [7] 0.03 | ralimetinib 0.021 | [8] 0.004 | [9] -0.016 | [11] 0.06 | [12] -0.082 | [13] -0.004 | [14] 0.003

NAGPA (UniProt Q9UK23)
inactive: erlotinib -0.009 | [1] -0.014 | [2] 0.013 | [3] -0.003 | [4] -0.004 | [6] 0.054 | ibrutinib 0.034 | [7] -0.052 | [9] -0.056 | [10] -0.151 | [11] 0.059 | [14] 0.049

MYBL2 (UniProt P10244)
inactive: erlotinib 0.02 | [1] 0.014 | [2] -0.011 | [3] 0.035 | [5] 0.005 | [6] 0.078 | [15] -0.013 | [16] -0.036 | IRAK-1-4 Inhibitor I 0.009 | ralimetinib 0 | [8] 0.02 | [9] -0.008 | [11] 0.057 | [12] 0.048 | [13] -0.013

NATD1 (UniProt Q8N6N6)
inactive: erlotinib 0.004 | [1] -0.207 | [2] 0.026 | [3] -0.206 | [4] -0.061 | [5] 0.008 | [6] 0.337 | [15] -0.005 | [16] 0.106 | IRAK-1-4 Inhibitor I 0.055 | ibrutinib 0.089 | ralimetinib 0.048 | [8] 0.002 | [9] 0.019 | [10] 0.009 | [11] 0.024 | [12] 0.004 | [13] -0.04

From the supplement of paper PMC10849652
